# Measurements from the supplement of paper PMC10032668.
# Sequences of proteins named here, by UniProt entry; tags and fusion partners are left off.
# GSPT2, Q8IYD1, UniProt Q8IYD1, whole entry: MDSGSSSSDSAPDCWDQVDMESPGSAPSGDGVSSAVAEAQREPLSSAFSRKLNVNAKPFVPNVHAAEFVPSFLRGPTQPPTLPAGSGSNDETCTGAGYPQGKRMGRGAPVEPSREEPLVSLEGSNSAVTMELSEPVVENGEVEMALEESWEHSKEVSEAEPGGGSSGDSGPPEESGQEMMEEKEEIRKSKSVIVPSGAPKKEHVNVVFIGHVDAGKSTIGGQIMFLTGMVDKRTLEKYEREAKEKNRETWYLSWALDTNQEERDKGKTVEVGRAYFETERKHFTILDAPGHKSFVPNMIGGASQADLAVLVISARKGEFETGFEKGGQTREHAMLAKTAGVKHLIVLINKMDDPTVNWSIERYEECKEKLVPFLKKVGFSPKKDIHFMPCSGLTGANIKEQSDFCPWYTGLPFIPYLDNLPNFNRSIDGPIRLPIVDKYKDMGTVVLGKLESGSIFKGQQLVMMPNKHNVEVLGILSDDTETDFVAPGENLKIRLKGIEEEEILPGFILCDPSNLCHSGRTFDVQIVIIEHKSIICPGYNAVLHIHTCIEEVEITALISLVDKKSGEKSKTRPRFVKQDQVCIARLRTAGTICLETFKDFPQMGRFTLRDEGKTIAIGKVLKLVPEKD
# NCAPH, Q15003, UniProt Q15003, whole entry: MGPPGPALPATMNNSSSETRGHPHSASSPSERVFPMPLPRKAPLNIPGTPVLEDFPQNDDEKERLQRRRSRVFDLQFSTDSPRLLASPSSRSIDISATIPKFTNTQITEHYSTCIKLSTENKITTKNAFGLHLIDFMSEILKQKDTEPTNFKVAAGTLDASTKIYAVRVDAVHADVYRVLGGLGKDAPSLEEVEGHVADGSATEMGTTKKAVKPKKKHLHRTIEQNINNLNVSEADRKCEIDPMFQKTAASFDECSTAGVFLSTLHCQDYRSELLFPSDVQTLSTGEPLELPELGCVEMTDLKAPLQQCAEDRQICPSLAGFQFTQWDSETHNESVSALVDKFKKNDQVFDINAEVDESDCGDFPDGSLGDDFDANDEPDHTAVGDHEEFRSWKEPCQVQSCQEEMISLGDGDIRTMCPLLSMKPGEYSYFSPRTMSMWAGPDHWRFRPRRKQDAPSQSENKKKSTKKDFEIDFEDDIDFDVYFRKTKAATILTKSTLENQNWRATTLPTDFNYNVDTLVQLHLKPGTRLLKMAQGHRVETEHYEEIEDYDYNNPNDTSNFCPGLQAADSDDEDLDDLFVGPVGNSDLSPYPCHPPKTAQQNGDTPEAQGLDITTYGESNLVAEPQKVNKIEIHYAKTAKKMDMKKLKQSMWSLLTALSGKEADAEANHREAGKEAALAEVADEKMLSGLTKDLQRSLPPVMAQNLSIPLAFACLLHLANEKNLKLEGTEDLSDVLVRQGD
# NUTF2, P61970, UniProt P61970, whole entry: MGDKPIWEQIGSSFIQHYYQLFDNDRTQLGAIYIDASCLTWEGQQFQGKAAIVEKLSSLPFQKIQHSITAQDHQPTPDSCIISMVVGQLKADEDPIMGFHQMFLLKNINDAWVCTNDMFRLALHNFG
# UBE2I, P63279, UniProt P63279, whole entry: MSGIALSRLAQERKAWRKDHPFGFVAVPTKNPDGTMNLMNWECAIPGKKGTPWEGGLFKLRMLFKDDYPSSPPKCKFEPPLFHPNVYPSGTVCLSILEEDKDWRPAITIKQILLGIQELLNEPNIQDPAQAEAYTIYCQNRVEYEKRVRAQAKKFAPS
# PCBP2, Q15366, UniProt Q15366, whole entry: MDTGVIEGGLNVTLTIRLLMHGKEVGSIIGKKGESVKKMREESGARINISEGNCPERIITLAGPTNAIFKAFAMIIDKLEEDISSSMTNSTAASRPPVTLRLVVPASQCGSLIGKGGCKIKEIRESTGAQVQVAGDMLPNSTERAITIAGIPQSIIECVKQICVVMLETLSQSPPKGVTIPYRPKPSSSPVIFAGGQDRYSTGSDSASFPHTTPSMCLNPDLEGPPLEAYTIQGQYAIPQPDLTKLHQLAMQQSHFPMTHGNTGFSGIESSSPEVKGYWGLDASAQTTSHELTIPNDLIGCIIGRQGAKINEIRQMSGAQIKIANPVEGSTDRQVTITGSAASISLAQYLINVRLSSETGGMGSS
# RAB7A, P51149, UniProt P51149, whole entry: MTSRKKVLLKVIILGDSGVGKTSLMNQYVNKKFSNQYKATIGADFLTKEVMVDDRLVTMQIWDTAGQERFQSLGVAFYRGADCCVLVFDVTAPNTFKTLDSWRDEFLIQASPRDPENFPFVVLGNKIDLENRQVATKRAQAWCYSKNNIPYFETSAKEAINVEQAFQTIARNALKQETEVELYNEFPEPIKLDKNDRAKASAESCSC
# EIF4E, P06730, UniProt P06730, whole entry: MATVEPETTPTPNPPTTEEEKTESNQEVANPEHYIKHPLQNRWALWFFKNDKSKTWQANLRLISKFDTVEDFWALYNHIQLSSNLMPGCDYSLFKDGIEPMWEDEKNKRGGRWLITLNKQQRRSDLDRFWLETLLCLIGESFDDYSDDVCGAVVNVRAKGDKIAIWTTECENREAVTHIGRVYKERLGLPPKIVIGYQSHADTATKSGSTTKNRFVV
# GNB2, P62879, UniProt P62879, whole entry: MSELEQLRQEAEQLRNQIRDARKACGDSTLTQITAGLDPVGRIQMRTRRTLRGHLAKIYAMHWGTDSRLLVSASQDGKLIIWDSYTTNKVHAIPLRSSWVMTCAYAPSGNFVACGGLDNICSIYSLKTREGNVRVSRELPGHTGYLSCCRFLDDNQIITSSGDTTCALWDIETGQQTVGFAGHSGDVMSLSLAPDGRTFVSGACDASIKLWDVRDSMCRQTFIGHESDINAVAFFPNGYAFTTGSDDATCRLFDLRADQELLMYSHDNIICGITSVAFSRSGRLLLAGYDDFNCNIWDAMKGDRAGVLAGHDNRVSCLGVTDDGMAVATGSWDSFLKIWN
# The other results are listed elsewhere or left out. Only hits are listed; about a third recur on repeated control peptides.
# What was measured:
# Test in all cases: PRISMA enrichment of interactor (LFQ) in peptide spot vs all other peptide spots (log2 fold change); higher = stronger / more specific binding of the interactor to the peptide
# C7orf50, Q9BRJ6 = target: C7orf50, Q9BRJ6
# Protocol: (§1)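 PRISMA: 15-aa overlapping tiles (offset 8 aa) of 60 microproteins, plus SOS1/GLUT1 control peptides, were spot-synthesized on cellulose membranes in triplicate. Membranes were incubated with benzonase-treated HEK293T lysate, and bound proteins were identified by LC-MS/MS with LFQ. Enrichment is the log2 fold change of each protein in one spot versus all other spots. Only interactors passing the significance cutoff are listed.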
# GSPT2, Q8IYD1 = target: GSPT2, Q8IYD1
# Protocol: as §1
# MRPL22, Q9NWU5 = target: MRPL22, Q9NWU5
# Protocol: as §1
# NCAPH, Q15003 = target: NCAPH, Q15003
# Protocol: as §1
# NUTF2, P61970 = target: NUTF2, P61970
# Protocol: as §1
# PRPF4, O43172 = target: PRPF4, O43172
# Protocol: as §1
# SRPRA, P08240 = target: SRPRA, P08240
# Protocol: as §1
# UBE2I, P63279 = target: UBE2I, P63279
# Protocol: as §1
# C2CD3, Q4AC94 = target: C2CD3, Q4AC94
# Protocol: as §1
# CCAR1, Q8IX12 = target: CCAR1, Q8IX12
# Protocol: as §1
# CFAP36, Q96G28 = target: CFAP36, Q96G28
# Protocol: as §1
# CNN3, Q15417 = target: CNN3, Q15417
# Protocol: as §1
# COG5, Q9UP83 = target: COG5, Q9UP83
# Protocol: as §1
# DNAJB11, Q9UBS4 = target: DNAJB11, Q9UBS4
# Protocol: as §1
# GTF2I, P78347 = target: GTF2I, P78347
# Protocol: as §1
# HNRNPH2, P55795 = target: HNRNPH2, P55795
# Protocol: as §1
# NUP62, P37198 = target: NUP62, P37198
# Protocol: as §1
# PCBP2, Q15366 = target: PCBP2, Q15366
# Protocol: as §1
# PTBP3, O95758 = target: PTBP3, O95758
# Protocol: as §1
# RAB7A, P51149 = target: RAB7A, P51149
# Protocol: as §1
# SDF2L1, Q9HCN8 = target: SDF2L1, Q9HCN8
# Protocol: as §1
# SUGT1, Q9Y2Z0 = target: SUGT1, Q9Y2Z0
# Protocol: as §1
# C8orf33, Q9H7E9 = target: C8orf33, Q9H7E9
# Protocol: as §1
# EIF4E, P06730 = target: EIF4E, P06730
# Protocol: as §1
# MRPL14, Q6P1L8 = target: MRPL14, Q6P1L8
# Protocol: as §1
# RAD50, Q92878 = target: RAD50, Q92878
# Protocol: as §1
# RNF213, Q63HN8 = target: RNF213, Q63HN8
# Protocol: as §1
# CA2, P00918 = target: CA2, P00918
# Protocol: as §1
# CARD14, Q9BXL6 = target: CARD14, Q9BXL6
# Protocol: as §1
# HK2, P52789 = target: HK2, P52789
# Protocol: as §1
# MAZ, P56270 = target: MAZ, P56270
# Protocol: as §1
# NAA15, Q9BXJ9 = target: NAA15, Q9BXJ9
# Protocol: as §1
# C1QBP, Q07021 = target: C1QBP, Q07021
# Protocol: as §1
# GNB2, P62879 = target: GNB2, P62879
# Protocol: as §1
# RNPS1, Q15287 = target: RNPS1, Q15287
# Protocol: as §1
# C19orf53, Q9UNZ5 = target: C19orf53, Q9UNZ5
# Protocol: as §1
# CHTOP, Q9Y3Y2 = target: CHTOP, Q9Y3Y2
# Protocol: as §1
# [1] = substrate: CP, P00450
# Protocol: as §1
# GAR1, Q9NY12 = target: GAR1, Q9NY12
# Protocol: as §1
# POLDIP2, Q9Y2S7 = target: POLDIP2, Q9Y2S7
# Protocol: as §1
# ZNF22, P17026 = target: ZNF22, P17026
# Protocol: as §1
binder,measurement,setting,value
FTVIFSGLGNNAGGT [PVT1],PRISMA enrichment of interactor (log2),"C7orf50, Q9BRJ6",5.83
same,PRISMA enrichment of interactor (log2),"GSPT2, Q8IYD1",5.71
same,PRISMA enrichment of interactor (log2),"MRPL22, Q9NWU5",5.15
same,PRISMA enrichment of interactor (log2),"NCAPH, Q15003",6.1
same,PRISMA enrichment of interactor (log2),"NUTF2, P61970",4.45
same,PRISMA enrichment of interactor (log2),"PRPF4, O43172",5.85
same,PRISMA enrichment of interactor (log2),"SRPRA, P08240",5.15
same,PRISMA enrichment of interactor (log2),"UBE2I, P63279",4.67
ANSMQLTLTLNTLQL,PRISMA enrichment of interactor (log2),"C2CD3, Q4AC94",5.34
same,PRISMA enrichment of interactor (log2),"CCAR1, Q8IX12",4.96
same,PRISMA enrichment of interactor (log2),"CFAP36, Q96G28",6.49
same,PRISMA enrichment of interactor (log2),"CNN3, Q15417",5.49
same,PRISMA enrichment of interactor (log2),"COG5, Q9UP83",4.38
same,PRISMA enrichment of interactor (log2),"DNAJB11, Q9UBS4",4.32
same,PRISMA enrichment of interactor (log2),"GTF2I, P78347",4.54
same,PRISMA enrichment of interactor (log2),"HNRNPH2, P55795",4.51
same,PRISMA enrichment of interactor (log2),"NUP62, P37198",4.08
same,PRISMA enrichment of interactor (log2),"PCBP2, Q15366",5.73
same,PRISMA enrichment of interactor (log2),"PTBP3, O95758",4.18
same,PRISMA enrichment of interactor (log2),"RAB7A, P51149",5.61
same,PRISMA enrichment of interactor (log2),"SDF2L1, Q9HCN8",4.12
same,PRISMA enrichment of interactor (log2),"SUGT1, Q9Y2Z0",3.6
PGLVGRRNGRAVDRA [TUG1],PRISMA enrichment of interactor (log2),"C8orf33, Q9H7E9",4.48
same,PRISMA enrichment of interactor (log2),"EIF4E, P06730",4.21
same,PRISMA enrichment of interactor (log2),"MRPL14, Q6P1L8",6.09
same,PRISMA enrichment of interactor (log2),"RAD50, Q92878",5.44
same,PRISMA enrichment of interactor (log2),"RNF213, Q63HN8",6.31
NCHNSEVDSVRDRLP,PRISMA enrichment of interactor (log2),"CA2, P00918",3.93
same,PRISMA enrichment of interactor (log2),"CARD14, Q9BXL6",4.9
same,PRISMA enrichment of interactor (log2),"HK2, P52789",6.49
same,PRISMA enrichment of interactor (log2),"MAZ, P56270",10.7
same,PRISMA enrichment of interactor (log2),"NAA15, Q9BXJ9",3.94
LPQRRRHRLRHGQEQ [RNF10],PRISMA enrichment of interactor (log2),"C1QBP, Q07021",6.7
same,PRISMA enrichment of interactor (log2),"GNB2, P62879",5.01
same,PRISMA enrichment of interactor (log2),"RNPS1, Q15287",5.96
SASCTFGGIWSSGVD [LINC01560],PRISMA enrichment of interactor (log2),"C19orf53, Q9UNZ5",6.84
same,PRISMA enrichment of interactor (log2),"CHTOP, Q9Y3Y2",5.43
same,PRISMA enrichment of interactor (log2),[1],4.11
same,PRISMA enrichment of interactor (log2),"GAR1, Q9NY12",5.34
same,PRISMA enrichment of interactor (log2),"POLDIP2, Q9Y2S7",5.41
same,PRISMA enrichment of interactor (log2),"ZNF22, P17026",4.97

# An excerpt of these results, bar-delimited.
binder | measurement | setting | value
ANSMQLTLTLNTLQL | PRISMA enrichment of interactor (log2) | DNAJB11, Q9UBS4 | 4.32
same | PRISMA enrichment of interactor (log2) | SUGT1, Q9Y2Z0 | 3.6
